Laboratory results: patent publication US4550078A, “Method for the quantitative determination of individual polyamine components in a mixture” (Amano Seiyaku Kabushiki Kaisha, priority 1982, dated 1985)
At least one compound was matched to its structure with a doubt left.

Assays:
polyamine oxidase AT-1 = assay: Enzymatic oxidative decomposition by polyamine oxidase AT-1, colorimetric determination of hydrogen peroxide; assay type: biochemical
[1] = system: polyamine oxidase AT-1 followed by putrescine oxidase; assay: Two-step reaction: polyamine oxidase AT-1, then putrescine oxidase; assay type: biochemical
[2] = pH 6.5, 35° C., 0.05 unit of enzyme (2 units for acetylspermine)

## CC(=O)NCCCNCCCCNCCCN [acetylspermine]
Polyamine oxidase AT-1; Table 1, substrates marked * only with a relatively high concentration of the enzyme
  putrescine formed: 1 moles per mole of the substrat
Polyamine oxidase AT-1; Table 1, substrates marked * only with a relatively high concentration of the enzyme, -- = no activity
  H2O2 formed: 2 moles per mole of the substrat
Polyamine oxidase AT-1; [2]
  hydrogen peroxide produced per mole of the substrate: 2 mol
  time to completion of the reaction: ≤ 10 min
Polyamine oxidase AT-1; spermine and spermidine at low enzyme concentration, acetylspermine and N1-acetylspermidine when the concentration of the enzyme is increased
  Activity of the enzyme on the substrate: active
[1]; 505 nm, AT-1 0.05 unit (about 5 units for acetylspermine and N1-acetylspermidine), 0.5 ml of 400 μM substrate in 2.5 ml
  absorbance after the first step: 1.00
[1]; 505 nm, after addition of putrescine oxidase
  increment of absorbance in the second step: 0.50
[1]; 505 nm, putrescine oxidase 0.5 unit, pH 8-9, 5 minutes
  absorbance after the second step: 1.50
[1]; polyamine oxidase AT-1
  hydrogen peroxide produced per mole of the substrate in the first step: 2 mol
[1]; putrescine oxidase acting on the putrescine produced in the first step
  hydrogen peroxide produced in the second step: 1 mol
